# Reference: patent US12723053B2, “KRas inhibitors” (ELI LILLY AND COMPANY, priority 2023, dated 2026)
# pIC50: −log10 of the molar value. Some of these results come from one statement about several compounds together.
# What was measured:
# NRAS = NRAS (Homo sapiens, UniProt P01111); assay: Cellular Phospho-ERK AlphaLISA assay, MEF-NRAS cells; type: cell-based, mouse; conditions: RAS-less MEFs expressing NRAS only; read-out: relative IC50, phospho-ERK, MEF-NRAS
# HRAS = HRAS (Homo sapiens, UniProt P01112); assay: Cellular Phospho-ERK AlphaLISA assay, MEF-HRAS cells; type: cell-based, mouse; conditions: RAS-less MEFs expressing HRAS only; read-out: relative IC50, phospho-ERK, MEF-HRAS
Structure (SMILES),pIC50 (NRAS),pIC50 (HRAS)
"CC(C)N(C)[C@@H]1CN(c2ncc3c4c(c(-c5ncc(F)c6sc(N)c(C#N)c56)c(Cl)c3n2)COC4)C[C@@H]1O (single isomer, unassigned; atropisomer 2) [Example 71C]",< 5.70,< 5.70
"CN(C)[C@H]1CCN(c2ncc3c4c(c(-c5c(F)ccc6sc(N)c(C#N)c56)c(F)c3n2)COC4)C1 (single isomer, unassigned; atropisomer 2) [Example 77A]",< 5.70,< 5.70
"N#Cc1c(N)sc2c(F)ccc(-c3c4c(c5cnc(OCC6(CN7C[C@@H]8C[C@H]7CO8)CC6)nc5c3Cl)COC4)c12 (single isomer, unassigned; atropisomer 2) [Example 89B]",< 5.70,< 5.70
"CN(C)[C@H]1CCN(c2ncc3c4c(c(-c5c(F)ccc6sc(N)c(C#N)c56)c(Cl)c3n2)COC4)C1 (single isomer, unassigned; atropisomer 2) [Example 95B]",< 5.70,< 5.70
"CN(C)[C@H]1CCN(c2ncc3c4c(c(-c5c(F)cnc6sc(N)c(C#N)c56)c(F)c3n2)COC4)C1 (single isomer, unassigned; atropisomer 2) [Example 237D]",< 5.70,< 5.70
"CN1CCN([C@@H]2CCN(c3ncc4c5c(c(-c6c(F)cnc7sc(N)c(C#N)c67)c(F)c4n3)COC5)C2)CC1 (single isomer, unassigned; atropisomer 2) [Example 241D]",< 5.70,< 5.70
"CC(C)N[C@@H]1CN(c2ncc3c4c(c(-c5c(F)ccc6sc(N)c(C#N)c56)c(F)c3n2)COC4)C[C@H]1C (single isomer, unassigned; atropisomer 2) [Example 243D]",< 5.70,< 5.70
"CN(C)[C@H]1CN(c2ncc3c4c(c(-c5c(F)ccc6sc(N)c(C#N)c56)c(F)c3n2)COC4)C[C@H]1O (single isomer, unassigned; atropisomer 2) [Example 245D]",< 5.70,< 5.70
"CC(C)N(C)[C@@H]1CN(c2ncc3c4c(c(-c5c(F)ccc6sc(N)c(C#N)c56)c(F)c3n2)COC4)C[C@@H]1O (single isomer, unassigned; atropisomer 2) [Example 249D]",< 5.70,< 5.70
"CC(C)N(C)[C@H]1CN(c2ncc3c4c(c(-c5c(F)ccc6sc(N)c(C#N)c56)c(F)c3n2)COC4)C[C@@H]1O (single isomer, unassigned; atropisomer 2) [Example 251D]",< 5.70,< 5.70
"CC(C)N(C)[C@H]1CN(c2ncc3c4c(c(-c5c(F)ccc6sc(N)c(C#N)c56)c(F)c3n2)COC4)C[C@H]1O (single isomer, unassigned; atropisomer 2) [Example 255D]",< 5.70,< 5.70
"CC1C(N(C)C)CCN1c1ncc2c3c(c(-c4ncc(F)c5sc(N)c(C#N)c45)c(F)c2n1)COC3 (single isomer, unassigned; diastereomer 2) [Example 83B, 2-Amino-4-(3-(3-(dimethylamino)-2-methylpyrrolidin-1-yl)-5-fluoro-7,9-dihydrofuro[3,4-f]quinazolin-6-yl)-7-fluorothieno[3,2-c]pyridine-3-carbonitrile, Diastereomer 2]",< 5.70,< 5.70
"CN(C)C1(CO)CCN(c2ncc3c4c(c(-c5c(F)ccc6sc(N)c(C#N)c56)c(Cl)c3n2)COC4)C1 (single isomer, unassigned; diastereomer 3) [Example 31B, 2-Amino-4-(5-chloro-3-(3-(dimethylamino)-3-(hydroxymethyl)pyrrolidin-1-yl)-7,9-dihydrofuro[3,4-f]quinazolin-6-yl)-5-fluorobenzo[b]thiophene-3-carbonitrile, Diastereomer 3]",< 5.70,< 5.70
"CN(C)[C@@H]1CN(c2ncc3c4c(c(-c5c(F)ccc6sc(N)c(C#N)c56)c(F)c3n2)COC4)C[C@H]1O (single isomer, unassigned; diastereomer 3) [Example 80A]",< 5.70,< 5.70
"CN(C)C1(CO)CCN(c2ncc3c4c(c(-c5ncc(F)c6sc(N)c(C#N)c56)c(F)c3n2)COC4)C1 (single isomer, unassigned; enantiomer 1) [Example 60A, 2-Amino-4-(3-(3-(dimethylamino)-3-(hydroxymethyl)pyrrolidin-1-yl)-5-fluoro-7,9-dihydrofuro[3,4-f]quinazolin-6-yl)-7-fluorothieno[3,2-c]pyridine-3-carbonitrile, Enantiomer 1]",< 5.70,< 5.70
"CN(C)[C@H]1CCN(c2ncc3c4c(c(-c5cccc6sc(N)c(C#N)c56)c(F)c3n2)COC4)C1 (single isomer, unassigned; isomer 1) [Example 30C]",< 5.70,< 5.70
"CN(C)C12CCC1CN(c1ncc3c4c(c(-c5ncc(F)c6sc(N)c(C#N)c56)c(F)c3n1)COC4)C2 (single isomer, unassigned; isomer 1) [Example 35B, 2-Amino-4-(3-(1-(dimethylamino)-3-azabicyclo[3.2.0]heptan-3-yl)-5-fluoro-7,9-dihydrofuro[3,4-f]quinazolin-6-yl)-7-fluorothieno[3,2-c]pyridine-3-carbonitrile, Isomer 1]",< 5.70,< 5.70
"CC(C)N(C)C1CCN(c2ncc3c4c(c(-c5ncc(F)c6sc(N)c(C#N)c56)c(F)c3n2)COC4)C1 (single isomer, unassigned; isomer 1) [Example 48B, 2-Amino-7-fluoro-4-(5-fluoro-3-(3-(isopropyl(methyl)amino)pyrrolidin-1-yl)-7,9-dihydrofuro[3,4-f]quinazolin-6-yl)thieno[3,2-c]pyridine-3-carbonitrile, Isomer 1]",< 5.70,< 5.70
"CN(C)C1CCCN(c2ncc3c4c(c(-c5ncc(F)c6sc(N)c(C#N)c56)c(F)c3n2)COC4)C1 (single isomer, unassigned; isomer 1) [Example 108B, 2-Amino-4-(3-(3-(dimethylamino)piperidin-1-yl)-5-fluoro-7,9-dihydrofuro[3,4-f]quinazolin-6-yl)-7-fluorothieno[3,2-c]pyridine-3-carbonitrile, Isomer 1]",< 5.70,< 5.70
"C[C@H]1[C@@H](NC2CC(C)(O)C2)CCN1c1ncc2c3c(c(-c4ncc(F)c5sc(N)c(C#N)c45)c(F)c2n1)COC3 (single isomer, unassigned; isomer 1) [Example 112C]",< 5.70,< 5.70
"CN(C1CCOC1)[C@H]1CCN(c2ncc3c4c(c(-c5ncc(F)c6sc(N)c(C#N)c56)c(F)c3n2)COC4)C1 (single isomer, unassigned; isomer 1) [Example 148D]",< 5.70,< 5.70
"CN(CC1CCCO1)[C@H]1CCN(c2ncc3c4c(c(-c5ncc(F)c6sc(N)c(C#N)c56)c(F)c3n2)COC4)C1 (single isomer, unassigned; isomer 1) [Example 150D]",< 5.70,< 5.70
"N#Cc1c(N)sc2c(F)cnc(-c3c4c(c5cnc(N6CCC7C6CCCN7CCO)nc5c3F)COC4)c12 (single isomer, unassigned; isomer 1) [Example 216D, 2-Amino-7-fluoro-4-(5-fluoro-3-(4-(2-hydroxyethyl)octahydro-1H-pyrrolo[3,2-b]pyridin-1-yl)-7,9-dihydrofuro[3,4-f]quinazolin-6-yl)thieno[3,2-c]pyridine-3-carbonitrile, Isomer 1]",< 5.70,< 5.70
"CC(C)NC1CN(c2ncc3c4c(c(-c5ncc(F)c6sc(N)c(C#N)c56)c(F)c3n2)COC4)CC12COC2 (single isomer, unassigned; isomer 1) [Example 218D, 2-Amino-7-fluoro-4-(5-fluoro-3-(8-(isopropylamino)-2-oxa-6-azaspiro[3.4]octan-6-yl)-7,9-dihydrofuro[3,4-f]quinazolin-6-yl)thieno[3,2-c]pyridine-3-carbonitrile, Isomer 1]",< 5.70,< 5.70
"CN1CCC2(CCN(c3ncc4c5c(c(-c6ncc(F)c7sc(N)c(C#N)c67)c(F)c4n3)COC5)C2)C1 (single isomer, unassigned; isomer 1) [Example 222D, 2-Amino-7-fluoro-4-(5-fluoro-3-(7-methyl-2,7-diazaspiro[4.4]nonan-2-yl)-7,9-dihydrofuro[3,4-f]quinazolin-6-yl)thieno[3,2-c]pyridine-3-carbonitrile, Isomer 1]",< 5.70,< 5.70
"N#Cc1c(N)sc2ccc(F)c(-c3c4c(c5c(N6C7CCC6CN(CCCO)C7)nc(OCC6(CN7CCOCC7)CC6)nc5c3F)COC4)c12 (single isomer, unassigned; isomer 2) [Example 4, 2-Amino-5-fluoro-4-(5-fluoro-1-(3-(3-hydroxypropyl)-3,8-diazabicyclo[3.2.1]octan-8-yl)-3-((1-(morpholinomethyl)cyclo-propyl)methoxy)-7,9-dihydrofuro[3,4-f]quinazolin-6-yl)benzo[b]thiophene-3-carbonitrile, Isomer 2]",< 5.70,< 5.70
"CC(=O)N1CCN(C2CCN(c3ncc4c5c(c(-c6ncc(F)c7sc(N)c(C#N)c67)c(F)c4n3)COC5)C2)CC1 (stereo in doubt) [Example 37D, 4-(3-((R)-3-(4-Acetylpiperazin-1-yl)pyrrolidin-1-yl)-5-fluoro-7,9-dihydrofuro[3,4-f]quinazolin-6-yl)-2-amino-7-fluorothieno[3,2-c]pyridine-3-carbonitrile]",< 5.70,< 5.70
"CN1CCCC2C1CCN2c1ncc2c3c(c(-c4ncc(F)c5sc(N)c(C#N)c45)c(F)c2n1)COC3 (centres unmarked) [Example 2C, 2-Amino-7-fluoro-4-(5-fluoro-3-(4-methyloctahydro-1H-pyrrolo[3,2-b]pyridin-1-yl)-7,9-dihydrofuro[3,4-f]quinazolin-6-yl)thieno[3,2-c]pyridine-3-carbonitrile]",< 5.70,< 5.70
